According to paper doi:10.1101/728410:
These are yes or no findings as the source states them, for the method shown. In cells and extracts the contact can be indirect. A yes stands for co-enrichment or nearness to the bait. Other partners may have been found.

Protein sequences, listed by entry. Tags and fused reporters are not part of them. Lines headed by an entry give the natural chain unless they say otherwise; changes in a name come on top. Chains listed by the source or under a name are the forms on record and can include a tag or linker.
shank2 (Q9QX74, form named): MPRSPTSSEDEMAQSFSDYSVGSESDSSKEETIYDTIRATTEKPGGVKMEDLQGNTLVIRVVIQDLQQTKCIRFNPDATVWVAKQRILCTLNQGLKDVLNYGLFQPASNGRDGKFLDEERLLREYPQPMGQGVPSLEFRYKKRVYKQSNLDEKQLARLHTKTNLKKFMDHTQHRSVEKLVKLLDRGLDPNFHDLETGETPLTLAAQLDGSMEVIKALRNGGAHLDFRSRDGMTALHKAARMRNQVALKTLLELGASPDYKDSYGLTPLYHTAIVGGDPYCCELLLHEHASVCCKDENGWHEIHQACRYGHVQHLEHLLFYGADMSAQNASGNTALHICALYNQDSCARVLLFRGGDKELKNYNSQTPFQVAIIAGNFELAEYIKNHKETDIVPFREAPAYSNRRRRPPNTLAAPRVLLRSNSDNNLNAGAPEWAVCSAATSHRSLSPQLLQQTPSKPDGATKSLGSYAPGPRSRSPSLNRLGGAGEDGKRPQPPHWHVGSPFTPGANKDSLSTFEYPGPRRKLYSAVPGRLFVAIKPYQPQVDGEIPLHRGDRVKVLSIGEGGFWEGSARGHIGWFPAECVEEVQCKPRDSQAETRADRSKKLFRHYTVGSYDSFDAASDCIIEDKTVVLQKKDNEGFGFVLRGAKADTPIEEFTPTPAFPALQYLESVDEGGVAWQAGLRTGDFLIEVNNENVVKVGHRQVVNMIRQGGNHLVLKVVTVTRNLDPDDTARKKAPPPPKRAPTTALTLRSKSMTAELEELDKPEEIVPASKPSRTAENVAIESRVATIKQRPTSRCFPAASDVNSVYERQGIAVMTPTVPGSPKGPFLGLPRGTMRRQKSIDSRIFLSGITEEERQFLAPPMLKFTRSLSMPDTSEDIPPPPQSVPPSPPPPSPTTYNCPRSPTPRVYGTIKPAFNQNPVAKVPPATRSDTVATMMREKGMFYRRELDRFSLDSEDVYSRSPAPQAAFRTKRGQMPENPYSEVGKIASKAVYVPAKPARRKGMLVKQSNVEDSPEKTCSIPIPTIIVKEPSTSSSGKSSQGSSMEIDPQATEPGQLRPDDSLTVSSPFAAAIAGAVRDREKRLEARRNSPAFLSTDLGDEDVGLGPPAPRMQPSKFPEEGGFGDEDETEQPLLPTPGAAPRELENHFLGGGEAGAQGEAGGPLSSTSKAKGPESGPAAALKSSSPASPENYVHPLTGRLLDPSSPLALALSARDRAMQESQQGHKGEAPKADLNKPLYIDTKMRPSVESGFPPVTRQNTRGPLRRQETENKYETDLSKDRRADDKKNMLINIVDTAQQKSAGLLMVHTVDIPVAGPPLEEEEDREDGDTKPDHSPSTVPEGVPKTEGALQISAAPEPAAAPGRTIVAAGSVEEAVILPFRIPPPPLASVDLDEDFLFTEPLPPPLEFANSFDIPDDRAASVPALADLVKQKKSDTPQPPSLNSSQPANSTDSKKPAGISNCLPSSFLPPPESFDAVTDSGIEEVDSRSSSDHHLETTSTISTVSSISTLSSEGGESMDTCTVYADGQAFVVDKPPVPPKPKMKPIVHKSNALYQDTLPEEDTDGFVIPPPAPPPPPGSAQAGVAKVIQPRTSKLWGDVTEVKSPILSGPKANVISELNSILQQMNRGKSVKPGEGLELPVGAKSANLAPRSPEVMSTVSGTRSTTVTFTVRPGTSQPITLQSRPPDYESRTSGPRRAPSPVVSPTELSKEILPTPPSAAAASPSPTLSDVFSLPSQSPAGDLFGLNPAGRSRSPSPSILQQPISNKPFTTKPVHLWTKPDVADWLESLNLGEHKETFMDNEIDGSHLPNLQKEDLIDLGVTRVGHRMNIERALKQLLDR
UniProt P05556: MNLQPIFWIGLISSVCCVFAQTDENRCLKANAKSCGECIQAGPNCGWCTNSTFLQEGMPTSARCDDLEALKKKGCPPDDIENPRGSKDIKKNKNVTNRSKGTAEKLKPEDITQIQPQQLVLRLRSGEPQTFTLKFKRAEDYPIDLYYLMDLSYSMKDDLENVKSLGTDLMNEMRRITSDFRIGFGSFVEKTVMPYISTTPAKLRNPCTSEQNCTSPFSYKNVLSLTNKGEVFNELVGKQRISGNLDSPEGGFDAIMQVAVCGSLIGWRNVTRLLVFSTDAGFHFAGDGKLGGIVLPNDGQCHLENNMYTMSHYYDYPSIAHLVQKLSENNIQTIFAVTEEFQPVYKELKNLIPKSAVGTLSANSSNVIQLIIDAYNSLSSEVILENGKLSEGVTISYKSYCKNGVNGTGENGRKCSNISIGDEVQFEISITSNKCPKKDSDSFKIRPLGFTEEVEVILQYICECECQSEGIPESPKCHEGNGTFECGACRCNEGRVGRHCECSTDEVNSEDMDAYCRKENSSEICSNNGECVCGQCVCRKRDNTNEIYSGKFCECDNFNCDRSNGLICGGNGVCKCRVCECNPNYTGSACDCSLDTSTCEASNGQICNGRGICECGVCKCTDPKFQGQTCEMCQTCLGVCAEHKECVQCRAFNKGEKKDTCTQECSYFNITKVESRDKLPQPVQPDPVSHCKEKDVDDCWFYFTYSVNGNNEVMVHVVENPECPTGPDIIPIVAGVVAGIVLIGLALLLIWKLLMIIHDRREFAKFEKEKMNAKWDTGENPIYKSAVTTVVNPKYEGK
UniProt Q15075: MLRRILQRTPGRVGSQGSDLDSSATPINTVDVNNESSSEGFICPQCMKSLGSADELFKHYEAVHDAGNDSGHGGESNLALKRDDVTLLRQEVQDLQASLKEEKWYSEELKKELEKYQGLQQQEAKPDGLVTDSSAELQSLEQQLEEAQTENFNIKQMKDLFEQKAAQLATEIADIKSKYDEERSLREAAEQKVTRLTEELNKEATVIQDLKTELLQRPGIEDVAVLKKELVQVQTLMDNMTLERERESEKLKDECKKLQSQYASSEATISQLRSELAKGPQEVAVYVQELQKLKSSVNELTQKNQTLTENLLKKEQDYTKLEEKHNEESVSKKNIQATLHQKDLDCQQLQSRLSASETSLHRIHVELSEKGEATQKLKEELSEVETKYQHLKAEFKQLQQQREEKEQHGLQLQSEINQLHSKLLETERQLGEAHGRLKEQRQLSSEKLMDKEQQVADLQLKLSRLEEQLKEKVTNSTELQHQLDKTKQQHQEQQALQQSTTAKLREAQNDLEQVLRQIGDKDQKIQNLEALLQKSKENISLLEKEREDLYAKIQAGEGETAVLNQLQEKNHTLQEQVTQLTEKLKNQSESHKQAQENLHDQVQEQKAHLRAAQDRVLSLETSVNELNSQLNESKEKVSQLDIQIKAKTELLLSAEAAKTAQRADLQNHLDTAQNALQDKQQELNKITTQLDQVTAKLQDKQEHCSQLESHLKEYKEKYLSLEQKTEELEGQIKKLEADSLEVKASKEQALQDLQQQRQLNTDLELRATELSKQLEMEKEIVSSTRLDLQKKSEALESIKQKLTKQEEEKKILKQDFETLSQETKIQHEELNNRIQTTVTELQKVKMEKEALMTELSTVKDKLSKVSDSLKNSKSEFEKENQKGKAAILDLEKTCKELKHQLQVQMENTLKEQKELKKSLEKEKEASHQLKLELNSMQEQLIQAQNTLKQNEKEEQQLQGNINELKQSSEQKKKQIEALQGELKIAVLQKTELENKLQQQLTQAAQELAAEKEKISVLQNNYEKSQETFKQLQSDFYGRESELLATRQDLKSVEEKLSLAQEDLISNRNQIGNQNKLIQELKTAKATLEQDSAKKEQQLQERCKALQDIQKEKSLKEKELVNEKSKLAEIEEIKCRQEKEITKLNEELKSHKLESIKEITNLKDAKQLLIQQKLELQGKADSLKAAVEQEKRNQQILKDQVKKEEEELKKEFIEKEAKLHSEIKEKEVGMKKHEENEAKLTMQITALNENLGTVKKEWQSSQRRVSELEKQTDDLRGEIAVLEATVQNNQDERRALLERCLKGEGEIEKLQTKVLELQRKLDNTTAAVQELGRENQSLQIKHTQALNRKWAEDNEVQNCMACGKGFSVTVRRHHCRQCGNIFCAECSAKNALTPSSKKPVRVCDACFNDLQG
UniProt Q13671: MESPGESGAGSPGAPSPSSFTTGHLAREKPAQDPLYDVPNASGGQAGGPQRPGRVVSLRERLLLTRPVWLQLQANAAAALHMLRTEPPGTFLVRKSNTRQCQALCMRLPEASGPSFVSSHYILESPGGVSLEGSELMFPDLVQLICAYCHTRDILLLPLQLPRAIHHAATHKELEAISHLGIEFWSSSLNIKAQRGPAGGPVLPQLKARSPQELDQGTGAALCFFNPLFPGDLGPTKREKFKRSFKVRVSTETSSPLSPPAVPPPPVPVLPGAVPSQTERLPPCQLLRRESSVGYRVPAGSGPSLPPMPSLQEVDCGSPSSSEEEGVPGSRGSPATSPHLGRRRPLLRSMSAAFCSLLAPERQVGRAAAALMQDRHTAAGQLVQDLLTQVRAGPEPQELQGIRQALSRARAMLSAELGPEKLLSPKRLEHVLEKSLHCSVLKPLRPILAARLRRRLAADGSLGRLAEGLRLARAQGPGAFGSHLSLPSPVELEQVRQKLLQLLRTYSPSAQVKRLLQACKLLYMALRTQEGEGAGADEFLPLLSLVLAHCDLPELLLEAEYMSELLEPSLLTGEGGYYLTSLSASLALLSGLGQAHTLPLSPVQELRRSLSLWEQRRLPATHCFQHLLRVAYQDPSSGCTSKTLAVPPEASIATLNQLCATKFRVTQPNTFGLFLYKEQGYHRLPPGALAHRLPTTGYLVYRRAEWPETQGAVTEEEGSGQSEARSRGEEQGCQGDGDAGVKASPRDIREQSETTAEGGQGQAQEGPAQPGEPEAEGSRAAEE
UniProt Q14247: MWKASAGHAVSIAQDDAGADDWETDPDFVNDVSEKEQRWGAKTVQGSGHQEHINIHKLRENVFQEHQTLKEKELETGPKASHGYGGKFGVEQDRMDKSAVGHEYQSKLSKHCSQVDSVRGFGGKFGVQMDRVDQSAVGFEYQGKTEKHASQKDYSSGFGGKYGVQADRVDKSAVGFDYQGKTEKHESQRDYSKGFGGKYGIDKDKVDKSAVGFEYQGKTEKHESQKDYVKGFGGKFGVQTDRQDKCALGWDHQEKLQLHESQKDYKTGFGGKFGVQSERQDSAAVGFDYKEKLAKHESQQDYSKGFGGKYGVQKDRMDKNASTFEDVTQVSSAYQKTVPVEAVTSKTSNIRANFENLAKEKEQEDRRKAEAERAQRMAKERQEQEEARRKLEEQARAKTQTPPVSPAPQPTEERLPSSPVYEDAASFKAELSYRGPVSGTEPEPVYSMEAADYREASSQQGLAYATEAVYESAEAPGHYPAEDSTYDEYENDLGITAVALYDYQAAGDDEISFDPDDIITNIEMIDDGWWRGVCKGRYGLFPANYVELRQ
UniProt Q9UJ41: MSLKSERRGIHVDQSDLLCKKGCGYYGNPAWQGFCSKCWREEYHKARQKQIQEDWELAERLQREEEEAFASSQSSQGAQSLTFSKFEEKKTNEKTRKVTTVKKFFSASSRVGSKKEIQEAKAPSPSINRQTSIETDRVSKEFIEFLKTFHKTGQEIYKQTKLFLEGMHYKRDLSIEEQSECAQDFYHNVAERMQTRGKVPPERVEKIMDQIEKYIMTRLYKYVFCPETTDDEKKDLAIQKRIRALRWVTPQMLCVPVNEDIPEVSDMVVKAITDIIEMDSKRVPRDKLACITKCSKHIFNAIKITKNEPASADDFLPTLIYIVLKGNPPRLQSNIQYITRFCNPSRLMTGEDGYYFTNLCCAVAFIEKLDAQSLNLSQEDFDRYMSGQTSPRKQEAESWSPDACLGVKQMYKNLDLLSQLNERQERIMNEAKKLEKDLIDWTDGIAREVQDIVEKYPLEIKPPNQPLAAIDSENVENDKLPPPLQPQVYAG

Target: shank2 (bait of the mass spectrometric search for shank2-interacting proteins) (UniProt Q9QX74)
Experiment: affinity purification with mass spectrometry

Substance | binding
FAK (endogenous) (from UniProt Q05397 1-1052) (enzyme) | binds
β1-integrin (from UniProt P05556 21-798) (receptor) | binds
EEA1 (from UniProt Q15075 1-1411) | binds

The next lines start with the values.

binding | Substance
binds | RIN1 (endogenous) (from UniProt Q13671 1-783)
binds | cortactin (endogenous) (from UniProt Q14247 1-550)
binds | Rabex5 (endogenous) (from UniProt Q9UJ41 1-491) (enzyme)
